# In PubChem BioAssay AID504834 (National Center for Advancing Translational Sciences (NCATS), 2011):
# Out of some 320,000 compounds screened, about 22,000 (6.9%) were called active. Inconclusive means that the source gave no clear call. Such entries were picked first, then a sample of the others. The call rests on the fitted dose curve; in most records, active means well fitted inhibition curve with a large enough effect; inconclusive means small, poorly fitted or top-dose-only effect, or another doubt; inactive means no such curve, though single readings can be large or run the other way. A potency beside an inconclusive call is a rough fit, not a confirmed value. Where a SMILES comes first, the peptide text is derived from it. [ ]: non-standard residue; d: D form. The star is where a group is joined. PhAc = O=C(Cc1ccccc1)*
# Assay: Primary qHTS for delayed death inhibitors of the malarial parasite plastid, 96 hour incubation
# Conditions: P. falciparum luciferase reporter growth; series mostly up to 28.7 µM; activity change, negative = inhibition: at the top concentration
# Summary of the method: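 Two-generation exposure (96 h) targets delayed-death phenotype. Reporter parasites carrying integrated firefly luciferase, in red cells at 2% hematocrit and 0.05% parasitemia final, kept at 37 C, 5% CO2; luminescence loss indicates inhibition.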
# On the % scale 0 is the no-effect control and ±100 the full control effect; potency means the concentration at half of the fitted maximal effect.
Compound,"activity change, negative = inhibition",Potency
O=C(CNC(=O)c1ccco1)N/N=C/c1cc(Br)ccc1O,inactive: 42.7%,
O=C(c1cccc(Br)c1)N1CCCc2ccccc21,,"inconclusive: 1.85 µM [inhibitor, partial curve, poor fit]"
CC(=O)c1cc(C#N)c(SCc2ccccn2)nc1C,inactive: 124%,
Nc1nonc1-n1nnc(C(=O)N/N=C/c2ccccn2)c1CNc1ccccc1,,"inconclusive: 18.5 µM [inhibitor, partial curve, poor fit]"
COc1cccc2cc(C(=O)C3=C(O)C(=O)N(CCN(C)C)C3c3ccc(F)cc3)oc12 (centres undefined),inactive: 30.8%,
CCOC(=O)Cc1c(C)nc2cc(-c3ccc(Cl)cc3)[nH]n2c1=O,,"inconclusive: 14.7 µM [inhibitor, single point]"
CCCn1c(NCCO)nc2ccccc21,,"inconclusive: 18.5 µM [inhibitor, single point]"
Cc1ccc(CNC(=O)C(=O)NCCC2=CCCCC2)cc1,,"inconclusive: 10.4 µM [inhibitor, single point]"
CCOc1ccc(S(=O)(=O)N2CCN(c3ccc(OC)cc3)CC2)c2cccnc12,,"inconclusive: 14.7 µM [inhibitor, single point]"
CSc1nc2ccc(NC(=O)c3ccc(Cl)s3)cc2s1,inactive: 29.9%,
Cn1c(OCc2cccnc2)nc2c1c(=O)n(Cc1ccc(F)cc1)c(=O)n2C,,"inconclusive: 3.29 µM [inhibitor, partial curve]"
CN(C)S(=O)(=O)c1cccc(COC(=O)c2cnccn2)c1,inactive: 16.2%,
Cc1cc(OCCn2ccnc2)cc(C)c1Cl,inactive: 3.72%,
COc1cccc(-n2cn[nH]c2=S)c1,inactive: 43.1%,
Cc1ccc(S(=O)(=O)Cn2nnnc2C(C(C)C)N2CCc3ccccc3C2)cc1 (centres undefined),inactive: 21.2%,
O=C(NC1CCN(Cc2ccccc2)CC1)c1cc(Br)c(Br)[nH]1,,active: 11.7 µM
CCN(c1ccccc1)S(=O)(=O)c1ccc(C(=O)N2CCCC(C(F)(F)F)C2)cc1 (centres undefined),,"inconclusive: 11.7 µM [inhibitor, partial curve]"
O=C(N/N=C/c1ccc(N2CCOCC2)cc1)C1COc2ccccc2O1 (centres undefined),inactive: 24.2%,
Cc1ccccc1C(=O)Nc1cccc(C(=O)Nc2ccccc2C(=O)O)c1,inactive: -26%,
Cc1ccc(C)c(C(=O)COC(=O)CCN2C(=O)C3C4CCC(C4)C3C2=O)c1 (centres undefined),inactive: -1.66%,
Cc1nc2ccc(N=NN(C)C)cc2[nH]1,inactive: 28.1%,
Clc1cccc(-c2cc3nc4c(c(N5CCN(c6cnccn6)CC5)n3n2)CCCC4)c1,inactive: -20.3%,
COC(=O)COc1ccc(S(=O)(=O)N2CCN(c3ccccc3F)CC2)cc1,,"inconclusive: 7.38 µM [inhibitor, partial curve]"
Cc1ccc(C)c(S(=O)(=O)Nc2ccc(C(=O)N3CCC3)cc2)c1,inactive: 27.5%,
Cc1cccc(NC(=O)c2sc3nc(N)c(C#N)cc3c2N)c1,,"inconclusive: 16.5 µM [inhibitor, single point]"

# Rewritten with tabs: entries from further up
Compound	activity change, negative = inhibition	Potency
Cc1ccc(CNC(=O)C(=O)NCCC2=CCCCC2)cc1		inconclusive: 10.4 µM [inhibitor, single point]
CCOc1ccc(S(=O)(=O)N2CCN(c3ccc(OC)cc3)CC2)c2cccnc12		inconclusive: 14.7 µM [inhibitor, single point]
CSc1nc2ccc(NC(=O)c3ccc(Cl)s3)cc2s1	inactive: 29.9%	
Cn1c(OCc2cccnc2)nc2c1c(=O)n(Cc1ccc(F)cc1)c(=O)n2C		inconclusive: 3.29 µM [inhibitor, partial curve]
CN(C)S(=O)(=O)c1cccc(COC(=O)c2cnccn2)c1	inactive: 16.2%	
Cc1cc(OCCn2ccnc2)cc(C)c1Cl	inactive: 3.72%	
COc1cccc(-n2cn[nH]c2=S)c1	inactive: 43.1%	
Cc1ccc(S(=O)(=O)Cn2nnnc2C(C(C)C)N2CCc3ccccc3C2)cc1 (centres undefined)	inactive: 21.2%	
O=C(NC1CCN(Cc2ccccc2)CC1)c1cc(Br)c(Br)[nH]1		active: 11.7 µM
CCN(c1ccccc1)S(=O)(=O)c1ccc(C(=O)N2CCCC(C(F)(F)F)C2)cc1 (centres undefined)		inconclusive: 11.7 µM [inhibitor, partial curve]
O=C(N/N=C/c1ccc(N2CCOCC2)cc1)C1COc2ccccc2O1 (centres undefined)	inactive: 24.2%	
Cc1ccccc1C(=O)Nc1cccc(C(=O)Nc2ccccc2C(=O)O)c1	inactive: -26%	
Cc1ccc(C)c(C(=O)COC(=O)CCN2C(=O)C3C4CCC(C4)C3C2=O)c1 (centres undefined)	inactive: -1.66%	
Cc1nc2ccc(N=NN(C)C)cc2[nH]1	inactive: 28.1%	

# Remaining list, next part

Compound,"activity change, negative = inhibition",Potency
COc1ccc(OC)c(CNC(=O)C2CCCN(S(=O)(=O)N3CCC(C)CC3)C2)c1 (centres undefined),,"inconclusive: 18.5 µM [inhibitor, single point]"
COc1ccc(OC)c(C(=O)CSc2nnc(Cc3cccs3)n2C)c1,,"inconclusive: 1.04 µM [inhibitor, full curve, poor fit]"
CC(CCc1ccccc1)NC(=O)C1CCN(S(=O)(=O)N2CCOCC2)CC1 (centres undefined),,"inconclusive: 3.29 µM [inhibitor, single point]"
CCC(CC)C(=O)Nc1cccc(C(=O)Nc2nccs2)c1,,"inconclusive: 13.1 µM [inhibitor, partial curve, poor fit]"
CCN(C(=O)COC(=O)/C=C/c1ccc(OC(F)F)c(OC)c1)C1CCS(=O)(=O)C1 (centres undefined),,"inconclusive: 14.7 µM [inhibitor, partial curve]"
COc1ccc(-c2csc(NC(=O)CS(=O)(=O)c3ccc(F)cc3)n2)cc1OC,,"inconclusive: 10.4 µM [inhibitor, partial curve]"
Cc1sc(NC(=O)c2ccco2)c(CN2CCN(Cc3ccccc3)CC2)c1C,,"inconclusive: 2.94 µM [inhibitor, full curve, poor fit]"
CN(C)c1nc(N/N=C/c2c[nH]c3ccccc23)nc(N2CCOCC2)n1,inactive: -26.9%,
CC(=O)Oc1ccc(C(=O)Nc2ccccc2C(=O)Nc2cccc(C(=O)O)c2)cc1,,"inconclusive: 10.4 µM [inhibitor, single point]"
CN1CCN(C(=S)NC(=O)c2cccc(S(=O)(=O)N(C)C)c2)CC1,,"inconclusive: 18.5 µM [inhibitor, partial curve, poor fit]"
Cc1cc(S(=O)(=O)N2CCOCC2)ccc1OCC(=O)NCc1ccccn1,inactive: 11.1%,
Brc1cccc(-c2nnc(-c3ccccc3)o2)c1,inactive: 16.6%,
COC(=O)c1ccc2c(=O)n3c(nc2c1)SCC(c1ccccc1)=N3,,"inconclusive: 0.0037 µM [inhibitor, full curve, poor fit]"
Cc1cc(C(=O)Nc2ccc(Cl)cc2)c(C)n1-c1ccccc1,inactive: -50.6%,
COc1ccc([C@H]2CC(=O)C=C(c3ccc(C)c(F)c3)C2)cc1,inactive: 35.2%,
COc1ccc2cc(-c3cc(C(=O)O)c4ccccc4n3)ccc2c1,inactive: 44.2%,
CCOC(=O)CSc1nc2nc(C)cc(C)n2n1,inactive: 40%,
CC(C)C[C@@H](NC(=O)[C@H]1CCCN1C(=O)Cc1ccccc1)C(N)=O (PhAc-[dP]-[dL]-NH2),inactive: 6.07%,
Cc1ccc(C(=O)CCC(=O)NCc2ccccc2)cc1,,"inconclusive: 4.15 µM [inhibitor, partial curve, poor fit]"
O=C(COc1ccc(-c2nnc(N3CCCCC3)c3ccccc23)cc1)N1CCCCC1,,active: 8.28 µM
Nc1ccc2c(c1)OC1(CCCC1)O2,,active: 4.15 µM
CCC(C)N(C(=O)COc1ccccc1C#N)C1CCS(=O)(=O)C1 (centres undefined),,"inconclusive: 5.86 µM [inhibitor, partial curve, poor fit]"
CCN1C(=O)[C@@H]2[C@@H](c3ccc(-c4cccc(Cl)c4)c(OC)c3)N3CCCC[C@@]3(C(=O)OC)[C@@H]2C1=O,,active: 3.7 µM
CCOc1ccc(C(=O)NC(=S)Nc2ccccc2N2CCOCC2)cc1Br,inactive: -6.36%,
CCCc1nnc(SCC(=O)Nc2ccccc2F)o1,inactive: -26.9%,

Compound,"activity change, negative = inhibition",Potency
O=C(COC(=O)c1cccc(S(=O)(=O)N2CCCC2)c1)Nc1ccccc1Cl,inactive: 1.61%,
O=C(NNC(=O)c1ccc([N+](=O)[O-])cc1)c1ccc(Br)cc1,,"inconclusive: 1.65 µM [inhibitor, full curve]"
COCCn1c(SCC(=O)NC(=O)NC2CCCC2)nc2ccccc2c1=O,,"inconclusive: 18.5 µM [inhibitor, single point]"
C/C(=N\NC1=NCCN1)c1ccccc1,,"inconclusive: 18.5 µM [inhibitor, single point]"
Cn1c(N)c(N2CCN(c3ccccc3)CC2)c(=O)[nH]c1=O,inactive: -4.35%,
COc1cccc(NS(=O)(=O)c2cc(C)ccc2OC)c1,,"inconclusive: 10.4 µM [inhibitor, single point]"
COc1cc(/C=C2/SC(=S)NC2=O)ccc1OS(=O)(=O)c1ccc(C)cc1,,active: 11.7 µM
CCOc1cccc(C(=O)Nc2cnn(Cc3ccccc3)c2)c1,,"inconclusive: 0.0052 µM [inhibitor, full curve, poor fit]"
COc1ccc(C(=O)NC2CCC(O)CC2)cc1S(=O)(=O)NCc1ccc(Cl)cc1 (centres undefined),,"inconclusive: 14.7 µM [inhibitor, partial curve, poor fit]"
CC(C(=O)Nc1cc(Cl)cc(Cl)c1)N1CCCC1 (centres undefined),,"inconclusive: 18.5 µM [inhibitor, single point]"
Cc1ccc(C)c(N2CCN(C(=O)CCC(=O)N3CCOc4ccc(Cl)cc43)CC2)c1,,active: 4.15 µM
CCC(=O)Nc1ccc(/C(C)=N\NC(=O)c2ccc(C)s2)cc1,,"inconclusive: 11.7 µM [inhibitor, single point]"
O=C(C1CCCN(Cc2cccnc2)C1)N1CCCCC1 (centres undefined),,"inconclusive: 18.5 µM [inhibitor, single point]"
CSCCC(NC(=O)COc1ccccc1)C(=O)N(C)CC(=O)Nc1ccc(Cl)cc1 (centres undefined),,"inconclusive: 18.5 µM [inhibitor, single point]"
CCc1cc(-c2n[nH]c(C)c2Oc2ccc(C(C)C)cc2)c(O)cc1O,,"inconclusive: 18.5 µM [inhibitor, single point]"
Cc1cc(=O)oc2cc(OCC(=O)N3CCN(C(C)c4ccccc4)CC3)c(Cl)cc12 (centres undefined),,"inconclusive: 9.28 µM [inhibitor, partial curve]"
COc1ccc([C@H]2CC(=O)C=C(c3ccc(Oc4ccccc4)cc3)C2)cc1OC,,"inconclusive: 2.94 µM [inhibitor, single point]"
C=C(C)C(=O)Nc1cccnc1Oc1ccc(F)cc1,,"inconclusive: 11.7 µM [inhibitor, partial curve, poor fit]"
CCOc1ccc(OCCSc2nc(C)cc(=O)[nH]2)cc1,,"inconclusive: 10.4 µM [inhibitor, partial curve]"
CCOC(=O)C1=Nc2ccccc2C1=[N+]=[N-],inactive: 51.6%,
COc1ccccc1C(=O)N/C(=C\c1ccccc1)C(=O)NC(C)C(=O)O (centres undefined),,active: 9.28 µM
CCN(CC)S(=O)(=O)c1cccc(NC(=O)c2ccc(-n3nc(C)cc3C)cc2)c1,,"inconclusive: 10.4 µM [inhibitor, partial curve]"
O=C(Nn1c(-c2ccccc2)nc2ccccc2c1=O)c1ccc([N+](=O)[O-])cc1,,"inconclusive: 18.5 µM [inhibitor, single point]"
Cc1nnc(SCC(=O)N2CC(=O)Nc3ccccc32)n1Cc1ccccc1,inactive: -3.26%,
